Where a name gives a salt, the structure may show the parent alone. The list shows a part of the results. Hit calls seldom repeat between salt and free forms of one compound.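 In K562 cells expressing nanoluciferase-fused kinases, luminescence was recorded at 4 h intervals between 2 and 18 h, normalized as percent of control with DMSO at 100% and a positive control at 0%. A significant (2 sigma) signal drop marks a time point as decreased. The authors' rule for a hit is not shown and takes in more than the number of time points.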
The molecules below were run against FGR (UniProt P09769) (assay: kinase-Nluc reporter destabilization hit call (1 = scored as downregulated) (binary); higher = compound decreases kinase abundance). Details: K562; 2-18 h.

kinase-Nluc reporter destabilization hit call, inactive:
O=c1cc(-c2ccc(O[C@@H]3O[C@H](CO)[C@@H](O)[C@H](O)[C@H]3O)cc2)oc2cc(O)c([C@@H]3O[C@H](CO)[C@@H](O)[C@H](O)[C@H]3O[C@@H]3OC[C@H](O)[C@H](O)[C@H]3O)c(O)c12 [Vaccarin] (10 µM) 0, O=CN1CCN(c2ccc(C=C3C(=O)Nc4ccccc43)cc2)CC1 (10 µM) 0, COc1ccc(Cl)cc1N(CC(=O)Nc1ccc2c(c1)OCO2)S(=O)(=O)c1ccccc1 (2.5 µM) 0, CCc1c(C(=O)NNC(=O)[C@H](O)c2cc(F)cc(F)c2)ccc(O)c1C (10 µM) 0, CN(C)CCn1cc2cc(NC(=O)c3cccc(C(F)(F)F)n3)c(C(C)(C)O)cc2n1 (10 µM) 0, CCC[C@H](C)Oc1nc(N)c2[nH]c(=O)n(CCCCCN3CCCCC3)c2n1 (10 µM) 0, CCOC(=O)c1c(C)[nH]c(C=C2C(=O)Nc3ccccc32)c1C (10 µM) 0, Cc1ccc(NC(=O)N2CCN(c3nc(N)nc4sc(-c5cccnc5)nc34)CC2)cc1 [PI4KIII beta inhibitor 3] (10 µM) 0, CS[C@@]1(C(=O)Nc2ccc3[nH]nc(-c4ccc(OC(C)C)nc4)c3c2)CCN(CC(=O)N2CC=C(c3ccc(-c4ncn(C)n4)cc3)CC2)C1 (2.5 µM) 0, O=C(Nc1ccc(Cl)cc1)C1CN(C(=O)c2cccc(-c3ccco3)c2)CC(F)(F)C1 (stereo not drawn) (2.5 µM) 0, Nc1ccc(Sc2nc3ccccc3s2)c(Cl)c1 [KRAS inhibitor-9] (10 µM) 0, Cn1c(N2CCO[C@@H](c3ccc(F)cc3)C2)nc(-c2ccncn2)cc1=O (10 µM) 0, COc1ccc(CN2CCC(c3ccc4nc(C(=O)N5CCN(Cc6ccc(C(F)(F)F)cc6)CC5)[nH]c4c3)CC2)cn1 (2.5 µM) 0, O=C(O)c1c[nH]c2cc(Cl)c(-c3ccc(C4(O)CCC4)cc3)cc12 (10 µM) 0, CC(C)(Oc1ccc(Cl)cc1)C(=O)Nc1ccc(OCc2ccc(C#N)cc2)cc1 [AMPK activator 4] (10 µM) 0, O=C(NCc1ccn[nH]1)c1cc([C@@H]2CCNC[C@H]2COc2ccc3c(c2)OCO3)ccc1F [GRK2-IN-1 (hydrochloride)] (10 µM) 0, Cc1cnc(Cl)nc1-c1ccc(N(Cc2ccc(CNC(=O)C(F)F)cc2)C(=O)c2ccc(O)cc2O)cc1 (10 µM) 0, CC1=C(C#N)C(c2ccc3[nH]nc(C)c3c2)C(C#N)=C(C)N1 (10 µM) 0, CN(C[C@@H]1COCCO1)S(=O)(=O)Nc1ccc2ccc3ncc(-c4cnn(C)c4)cc3c(=O)c2c1 (2.5 µM) 0, CC(=O)Nc1nc(C)c(-c2cc(C)c3c(c2)CN([C@@H](C)C2CC2)C3=O)s1 (10 µM) 0, O=C(Nc1ccccc1C(=O)NC1CCCCNC1=O)c1cc2ccccc2s1 (stereo not drawn) (10 µM) 0, CO[C@]1(C(=O)N[C@@H](C)c2ccc(-n3cc(F)cn3)nc2)CC[C@H](c2nc(C)cc(Nc3cc(C)[nH]n3)n2)CC1 [Pralsetinib] (10 µM) 0, O=[N+]([O-])c1ccc(-c2nc(-c3ccc(F)cc3)c(-c3ccncc3)[nH]2)cc1 (10 µM) 0, CC(ONC(=O)c1cc(C(F)(F)F)cc(C(F)(F)F)c1)C(=O)Nc1ccc(Cl)cc1 (stereo not drawn) (2.5 µM) 0, Cc1cncc2cccc(S(=O)(=O)N3CCCNC[C@@H]3C)c12 [H-1152 (dihydrochloride)] (10 µM) 0, Cc1nc(NC(=O)N2CCC[C@H]2C(N)=O)sc1-c1ccnc(C(C)(C)C(F)(F)F)c1 [Alpelisib] (2.5 µM) 0, CCCCNc1ncc2c(-c3ccc(F)cc3)nn(CC3CCC(N)CC3)c2n1 (stereo not drawn) (2.5 µM) 0, CS(=O)(=O)c1ccc([C@@H](CC2CCCC2)C(=O)Nc2nccs2)cc1 (10 µM) 0, CO/N=C1/C(c2c(O)[nH]c3cc(Cl)c(Cl)cc23)=Nc2ccccc21 (10 µM) 0, CNCc1ccccc1Sc1cccc2ccccc12 [IFN alpha-IFNAR-IN-1 (hydrochloride)] (10 µM) 0, C=CC(=O)N1CCC(c2ccc(C(N)=O)c(-c3ccc(Oc4ccccc4)cc3)n2)CC1 [Orelabrutinib] (2.5 µM) 0, Cc1cc2c(F)c(Oc3ncnn4cc(OC[C@@H](C)OC(=O)[C@H](C)N)c(C)c34)ccc2[nH]1 [Brivanib (alaninate)] (10 µM) 0, CCC(F)(F)c1cc(N2CCC(S(C)(=O)=O)CC2)nc2sc(C(N)=O)c(N)c12 (10 µM) 0, NC(=O)c1c(NC(=O)C2CC2)sc2c1CCCC2 (10 µM) 0, CC(C)=CCC[C@](C)(O[C@@H]1O[C@H](CO[C@@H]2O[C@H](CO)[C@@H](O)[C@H](O)[C@H]2O)[C@@H](O)[C@H](O)[C@H]1O)[C@H]1CC[C@]2(C)[C@@H]1[C@H](O)C[C@@H]1[C@@]3(C)CC[C@H](O[C@@H]4O[C@H](CO)[C@@H](O)[C@H](O)[C@H]4O[C@@H]4O[C@H](CO)[C@@H](O)[C@H](O)[C@H]4O)C(C)(C)[C@@H]3CC[C@]12C [Ginsenoside Rb1] (10 µM) 0, COc1cccc(-c2cc(=O)c3ccccc3o2)c1N (10 µM) 0, C[C@@H]1COC(Nc2ccc3ncnc(Nc4ccc(OCc5nccs5)c(Cl)c4)c3c2)=N1 [Varlitinib] (10 µM) 0, Cc1nc(Nc2cnn(C3CCNCC3)c2)nc2c1N(C)C(=O)c1cc3ccccc3cc1N2C (2.5 µM) 0
